Experiment [1] concerns the target T1, cochlin (purified, exogenous) (human) (UniProt O43405).
T1 sequence: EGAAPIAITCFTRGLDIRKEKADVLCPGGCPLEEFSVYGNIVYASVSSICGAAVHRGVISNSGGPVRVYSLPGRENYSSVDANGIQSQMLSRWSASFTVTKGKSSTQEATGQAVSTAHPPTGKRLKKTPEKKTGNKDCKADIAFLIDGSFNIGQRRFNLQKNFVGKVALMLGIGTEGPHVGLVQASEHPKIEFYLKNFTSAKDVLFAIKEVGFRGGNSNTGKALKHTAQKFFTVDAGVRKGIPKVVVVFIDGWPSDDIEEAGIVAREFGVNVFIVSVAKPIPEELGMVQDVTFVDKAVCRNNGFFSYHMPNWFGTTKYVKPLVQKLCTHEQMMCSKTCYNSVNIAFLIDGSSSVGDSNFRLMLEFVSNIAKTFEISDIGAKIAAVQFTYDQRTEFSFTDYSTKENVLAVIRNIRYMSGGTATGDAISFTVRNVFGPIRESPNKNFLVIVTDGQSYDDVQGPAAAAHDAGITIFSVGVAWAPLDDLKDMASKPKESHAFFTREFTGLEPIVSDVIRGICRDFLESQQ
Description: co-IP; 1-2 ug purified cochlin multimerized by shear stress (30-gauge needle, 10-20 passes) added to 100 ug human TM protein extract (50 mM Tris-HCl pH 7.5, 125 mM NaCl, 0.1% genapol), 2 h room temperature; anti-cochlin (hCochlin#3) antibody on Protein A/G magnetic beads; Western blot for TREK-1; only the target purified.

Amino acid sequences for entries named in this document (tags omitted).
UniProt O95069: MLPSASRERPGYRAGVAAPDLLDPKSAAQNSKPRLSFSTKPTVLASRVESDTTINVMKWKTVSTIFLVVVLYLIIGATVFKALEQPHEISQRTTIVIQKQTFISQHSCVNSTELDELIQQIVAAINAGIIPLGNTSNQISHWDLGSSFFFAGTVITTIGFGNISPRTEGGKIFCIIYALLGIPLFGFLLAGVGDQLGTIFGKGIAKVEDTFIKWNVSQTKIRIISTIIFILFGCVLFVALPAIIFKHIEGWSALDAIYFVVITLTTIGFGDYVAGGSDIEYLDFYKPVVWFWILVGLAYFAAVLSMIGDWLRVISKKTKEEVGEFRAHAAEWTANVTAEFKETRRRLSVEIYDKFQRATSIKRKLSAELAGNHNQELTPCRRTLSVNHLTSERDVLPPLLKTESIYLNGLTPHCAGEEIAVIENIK

The target of experiment [2] is T2, cochlin (in human TM samples) (human (endogenous in human TM)) (UniProt O43405).
T2 sequence: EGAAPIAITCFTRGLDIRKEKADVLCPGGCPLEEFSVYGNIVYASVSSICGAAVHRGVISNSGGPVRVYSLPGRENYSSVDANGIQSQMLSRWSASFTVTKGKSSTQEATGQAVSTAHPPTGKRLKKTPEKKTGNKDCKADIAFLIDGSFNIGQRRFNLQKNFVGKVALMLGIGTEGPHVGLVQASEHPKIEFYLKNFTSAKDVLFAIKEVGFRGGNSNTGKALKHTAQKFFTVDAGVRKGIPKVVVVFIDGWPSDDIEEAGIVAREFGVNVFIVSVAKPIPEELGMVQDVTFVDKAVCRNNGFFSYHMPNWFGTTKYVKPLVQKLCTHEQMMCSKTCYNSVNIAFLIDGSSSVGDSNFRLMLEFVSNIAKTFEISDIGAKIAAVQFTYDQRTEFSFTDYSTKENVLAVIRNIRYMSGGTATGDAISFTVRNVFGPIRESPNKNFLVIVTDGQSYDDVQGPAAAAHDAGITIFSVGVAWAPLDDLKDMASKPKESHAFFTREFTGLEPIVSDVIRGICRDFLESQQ
Briefly: co-IP; human TM samples, normal and glaucomatous; reciprocal immunoprecipitation with anti-cochlin or anti-TREK-1 antibody on Protein A/G magnetic beads; Western blot.

Experiment [3] has as its target T1, cochlin (purified, exogenous) (human). Description: co-IP; 1-2 ug purified cochlin, native (monomeric, no shear stress), added to 100 ug human TM protein extract (50 mM Tris-HCl pH 7.5, 125 mM NaCl, 0.1% genapol), 2 h room temperature; anti-cochlin (hCochlin#3) antibody on Protein A/G magnetic beads; Western blot for TREK-1; only the target purified.
Experiment [4] has as its target T3, cochlin (purified, exogenous) (human), O43405.
T3 chain: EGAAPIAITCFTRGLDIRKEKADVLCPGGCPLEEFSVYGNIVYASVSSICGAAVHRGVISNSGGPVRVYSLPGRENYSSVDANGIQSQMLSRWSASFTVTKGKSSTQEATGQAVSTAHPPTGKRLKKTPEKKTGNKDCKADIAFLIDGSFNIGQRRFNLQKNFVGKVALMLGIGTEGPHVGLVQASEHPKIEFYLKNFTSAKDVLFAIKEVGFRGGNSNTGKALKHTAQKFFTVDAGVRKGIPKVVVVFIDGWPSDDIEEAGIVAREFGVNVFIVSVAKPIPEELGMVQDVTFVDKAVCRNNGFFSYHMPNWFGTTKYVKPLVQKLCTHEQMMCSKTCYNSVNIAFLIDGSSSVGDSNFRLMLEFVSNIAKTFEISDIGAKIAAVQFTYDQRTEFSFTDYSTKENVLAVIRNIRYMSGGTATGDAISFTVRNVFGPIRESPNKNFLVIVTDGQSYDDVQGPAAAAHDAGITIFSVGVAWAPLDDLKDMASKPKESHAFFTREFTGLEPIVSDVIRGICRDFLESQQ
Briefly: non-reducing denaturing gel with Western blot; about 10 ug purified cochlin passed through a 30-gauge needle 10-20 times (shear stress); 4-20% Tris-glycine gel, non-reducing but denaturing; blot probed for cochlin; both purified. Particulars: remark: other sources report otherwise.

No constants are given. Whether binding was seen depends on the method and setting. For some of these results: Binding seen in cells or lysates may run through a third protein. Some binding calls cover weakened binding; strength is not graded here.

Among the data in article PMC5428432 are binding values, retold here.

On to “TREK-1 (stretch-activated K+ channel) (from UniProt O95069 1-426)”, for which the binding entry in experiment [1], in experiment [2] and in experiment [3] was “binds” throughout.

B1: cochlin (purified, exogenous), O43405-1 25-550 (protein)
chain: EGAAPIAITCFTRGLDIRKEKADVLCPGGCPLEEFSVYGNIVYASVSSICGAAVHRGVISNSGGPVRVYSLPGRENYSSVDANGIQSQMLSRWSASFTVTKGKSSTQEATGQAVSTAHPPTGKRLKKTPEKKTGNKDCKADIAFLIDGSFNIGQRRFNLQKNFVGKVALMLGIGTEGPHVGLVQASEHPKIEFYLKNFTSAKDVLFAIKEVGFRGGNSNTGKALKHTAQKFFTVDAGVRKGIPKVVVVFIDGWPSDDIEEAGIVAREFGVNVFIVSVAKPIPEELGMVQDVTFVDKAVCRNNGFFSYHMPNWFGTTKYVKPLVQKLCTHEQMMCSKTCYNSVNIAFLIDGSSSVGDSNFRLMLEFVSNIAKTFEISDIGAKIAAVQFTYDQRTEFSFTDYSTKENVLAVIRNIRYMSGGTATGDAISFTVRNVFGPIRESPNKNFLVIVTDGQSYDDVQGPAAAAHDAGITIFSVGVAWAPLDDLKDMASKPKESHAFFTREFTGLEPIVSDVIRGICRDFLESQQ
With B1, the binding entry in experiment [4] was “binds”.
